Measurements: patent publication US20100092453A1, “Method of producing porous microparticles” (priority 2006, published 2010)

Assay: In vitro dry powder inhaler deposition, Andersen Cascade Impactor
Experimental: The pulmonary deposition of the dry powders was investigated using an Andersen Cascade Impactor (ACI) (1 ACFM Eight Stage Non-Viable Cascade Impactor, Graseby Andersen, Atlanta, Ga.). […] Size 3 hard gelatin capsules (Farillon Ltd., U.K.) were filled to approximately 50% with the dry powder (approximately 25 mg of powder). […] The amount of powder deposited on each stage of the impactor was determined by weight, UV analysis or HPLC analysis.

Cc1cc(C)nc(NS(=O)(=O)c2ccc(N)cc2)n1 [Micronised sulfadimidine, sulfadimidine]
fine particle fraction (sulfadimidine and sulfadimidine/lactose carrier blends): 1.4±0.1%
fine particle fraction (sulfadimidine powders (Examples 11, 12, raw, non-porous)): 2.3±0.7%
